# Data taken from the supplement of paper PMC11348887.
# Where a name gives a salt, the structure may show the parent alone. This is one part of the list. Most entries show no effect beyond the scatter of the controls.
# Key:
# Details in all cases: 5 µM; treatment: days 7-14 after plating, readout day 21
# [1] = tested on: hPSC-derived cortical neurons (WA09); assay: nucleus area z-score vs screen plate; higher = larger nuclei (more mature)
# [2] = tested on: hPSC-derived cortical neurons (WA09); assay: total neurite length per nucleus (MAP2) z-score; higher = more neurite growth
# [3] = tested on: hPSC-derived cortical neurons (WA09); assay: nucleus roundness z-score vs screen plate; higher = rounder nuclei (more mature)
# [4] = tested on: hPSC-derived cortical neurons (WA09); assay: KCl-induced FOS+/EGR-1+ double-positive nuclei fraction z-score (KCl minus unstimulated); higher = stronger activity-induced IEG response
SMILES,nucleus area z-score [1],total neurite length per nucleus (z-score) [2],nucleus roundness z-score [3],KCl-induced FOS+/EGR-1+ double-positive nuclei fraction z-score [4]
O=C(O)CCCc1ccc(N(CCCl)CCCl)cc1 [Chloroambucil],0.151,1.14,1.24,1.25
O=C1CCC[C@@H]2[C@H]3CCCN4CCC[C@@H](CN12)[C@@H]34 [(+)-Matrine],0.335,0.704,0.398,-0.451
O=[N+]([O-])/C=C/c1ccc2c(c1)OCO2 [MNS (3_4-Methylenedioxy-_-nitrostyrene_ MDBN)],0.0981,0.8,0.377,-1.07
CC(=O)Nc1ccc(OC[C@](C)(O)C(=O)Nc2ccc([N+](=O)[O-])c(C(F)(F)F)c2)cc1 [Andarine],2.23,0.579,0.145,0.915
CC(C)N(CCNC(=O)CN1CCCC1=O)C(C)C [Pramiracetam],0.522,0.0463,0.0937,0.812
CNCC(O)c1ccc(O)cc1 (configuration not stated) [Synephrine],-0.0238,-0.331,-0.0708,0.718
C[C@@H]1CC[C@H]2[C@@H](C)C(=O)O[C@@H]3O[C@@]4(C)CC[C@@H]1[C@]32OO4 [Artemisinin],0.595,0.066,0.258,-1.35
O=P1(NCCCl)OCCCN1CCCl (configuration not stated) [Ifosfamide],0.452,-0.419,-0.74,0.208
CCN1CCN(C(=O)Cc2ccc(Nc3ncc(F)c(Nc4ccc(C(=O)Nc5ccccc5Cl)cc4)n3)cc2)CC1 [Aurora A Inhibitor I],0.126,0.254,-1.55,-1.16
CC(C)(C)c1cc(C=C(C#N)C#N)cc(C(C)(C)C)c1O [Tyrphostin 9],1.04,0.796,0.474,-0.293
CCN(CC)C(=O)c1ccc(C2=CC3(CCNCC3)Oc3cccc(O)c32)cc1,0.86,0.0444,-1.19,0.268
Cc1cccc(C(C)c2c[nH]cn2)c1C (configuration not stated) [Medetomidine HCl],0.489,0.212,-0.0345,-0.598
CC(C)NCC(O)c1ccccc1Cl (configuration not stated) [Clorprenaline HCl],0.705,0.458,0.416,2.26
CN1[C@@H]2CC(O)C[C@H]1[C@@H]1O[C@@H]12 (some centres not stated) [Scopine],-0.458,0.473,0.0233,1.26
COc1ccc2c(c1)[C@]13CCCC[C@@H]1[C@H](C2)N(C)CC3 [Dextromethorphan hydrobromide hydrate],-0.218,0.691,1.22,-0.107
c1ccc([C@@H]2C[C@H]2NC2CCNCC2)cc1,1.82,1.04,1.19,3.29
Oc1cc(Cl)ccc1Oc1ccc(Cl)cc1Cl [Triclosan],-0.188,-0.0206,0.0801,0.328
O=S(=O)(CC1CS1)c1ccc(Oc2ccccc2)cc1 (configuration not stated),0.303,0.0971,0.242,0.00963
C[C@]12CC[C@H](O)C[C@@H]1CC[C@@H]1[C@@H]2CC[C@]2(C)C(=O)CC[C@@H]12 [Epiandrosterone],-0.13,-0.359,-0.187,0.459
CC[C@H]1CN2CC[C@H]1C[C@@H]2[C@@H](O)c1ccnc2ccc(OC)cc12 [Hydroquinidine],-0.755,0.314,1.13,1.37
Cc1cc2c(C(C)C)c(O)c(O)c(C=O)c2c(O)c1-c1c(C)cc2c(C(C)C)c(O)c(O)c(C=O)c2c1O [Gossypol],0.246,-0.304,-1.4,0.191
CN1CCC(c2c[nH]c3ccc(O)cc23)CC1,0.0373,0.514,0.525,0.00132
NC(=O)C[S@@+]([O-])C(c1ccccc1)c1ccccc1 [Armodafinil],0.689,0.249,1.11,2.21
N[C@@H]1C[C@H]1c1ccccc1 [Tranylcypromine (2-PCPA) HCl],1.68,1.22,0.596,4.83
CN1CCCCC1Cn1cc(C(=O)c2cc([N+](=O)[O-])ccc2I)c2ccccc21 (configuration not stated),-0.193,-1.4,-2.38,-1.48
O=[N+]([O-])C(Br)(CO)CO [Bronopol],1.6,-1.36,-1.21,-2.01
CN1[C@@H]2CC[C@H]1C[C@@H](OC(=O)[C@H](CO)c1ccccc1)C2 [Hyoscyamine],-15.3,-4.69,-7.03,-0.843
O=C(O)CNC(=O)C1C(=O)N(C2CCCCC2)C(=O)N(C2CCCCC2)C1=O,0.734,0.833,0.947,1.61

# Complete entries, quoted from the list. Values in the order: nucleus area z-score [1] | total neurite length per nucleus (z-score) [2] | nucleus roundness z-score [3] | KCl-induced FOS+/EGR-1+ double-positive nuclei fraction z-score [4]
# c1ccc([C@@H]2C[C@H]2NC2CCNCC2)cc1 as listed: 1.82 | 1.04 | 1.19 | 3.29
# CC(=O)Nc1ccc(OC[C@](C)(O)C(=O)Nc2ccc([N+](=O)[O-])c(C(F)(F)F)c2)cc1 [Andarine] as listed: 2.23 | 0.579 | 0.145 | 0.915
